Laboratory results reported in PMC2670979.
Results are given in words; binding and its absence hold for the method and conditions named. In cells and extracts the contact can be indirect. Binding can be weak; no strength is given.

Protein sequences, listed by entry. Tags and fused reporters are not part of them. Lines headed by an entry give the natural chain unless they say otherwise; changes in a name come on top.
UniProt Q8IXI2: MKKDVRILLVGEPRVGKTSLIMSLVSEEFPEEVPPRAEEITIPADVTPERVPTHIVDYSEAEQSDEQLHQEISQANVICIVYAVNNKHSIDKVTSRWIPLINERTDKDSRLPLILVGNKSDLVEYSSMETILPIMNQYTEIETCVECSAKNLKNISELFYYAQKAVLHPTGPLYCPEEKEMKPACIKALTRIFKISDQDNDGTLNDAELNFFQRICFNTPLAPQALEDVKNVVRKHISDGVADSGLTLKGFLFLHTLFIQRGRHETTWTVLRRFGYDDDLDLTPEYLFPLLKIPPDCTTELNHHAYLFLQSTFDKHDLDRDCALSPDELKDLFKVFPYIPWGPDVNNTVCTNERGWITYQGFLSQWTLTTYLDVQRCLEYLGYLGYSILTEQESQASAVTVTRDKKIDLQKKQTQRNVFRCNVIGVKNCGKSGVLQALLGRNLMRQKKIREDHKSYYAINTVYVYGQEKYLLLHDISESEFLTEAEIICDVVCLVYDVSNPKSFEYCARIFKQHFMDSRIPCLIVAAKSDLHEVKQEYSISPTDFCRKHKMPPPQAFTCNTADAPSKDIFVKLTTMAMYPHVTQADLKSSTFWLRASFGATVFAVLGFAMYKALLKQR

Key:
GST-Miro1 WT [1] = target: GST-Miro1 WT (UniProt Q8IXI2); experiment: pull-down; 20 ug GST fusion protein (or GST alone) on glutathione sepharose beads; 2.5 ul of one 35S-labelled in vitro translated protein; 1-2 hr at 4°C; 50 mM HEPES, 125 mM NaCl, 5 mM H-EDTA; no other proteins in the system; no added Ca2+, repeated with 2 mM Ca2+; phosphor storage screen; only the target purified
GST-Miro1 WT [2] = target: GST-Miro1 WT (UniProt Q8IXI2); experiment: pull-down; as a1 but with KIF5C, TRAK2 (1-700) and GST-Miro1 (WT or ΔEF) all three present together; with and without Ca2+; only the target purified

Binder | binding (GST-Miro1 WT [1]) | binding (GST-Miro1 WT [2])
TRAK2 (amino acids 476–700) (domain or fragment, UniProt Q8R2H7 476-700, 35S-methionine label) EDSDLATALHRLSLRRQNYLSEKQFFAEEWERKLQILAEQEEEVSSCEALTENLASFCTDQSETTELGSAGCLRGFMPEKLQIVKPLEGSQTLHHWQQLAQPNLGTILDPRPGVITKGFTQMPKDAVYHISDLEEDEEVGITFQVQQPLQLEQKPAPPPPVTGIFLPPMTSAGGPVSVATSNPGKCLSFTNSTFTFTTCRILHPSDITQVTPSSGFPSLSCGSSA | binds | 
TRAK2 (amino acids 1–700) (domain or fragment, UniProt Q8R2H7 1-700, 35S-methionine label) MSLSQNAIFKSQTGEENLMSSNHRDSESITDVCSNEDLPEVELVNLLEEQLPQYKLRVDSLFLYENQDWSQSSHQQQDASETLSPVLAEETFRYMILGTDRVEQMTKTYNDIDMVTHLLAERDRDLELAARIGQALLKRNHVLSEQNESLEEQLGQAFDQVNQLQHELSKKEELLRIVSIASEESETDSSCSTPLRFNESFSLSQGLLQLDMMHEKLKELEEENMALRSKACHIKTETFTYEEKEQKLINDCVNELRETNAQMSRMTEELSGKSDELLRYQEEISSLLSQIVDLQHKLKEHVIEKEELRLHLQASKDAQRQLTMELHELQDRNMECLGMLHESQEEIKELRNKAGPSAHLCFSQAYGVFAGESLAAEIEGTMRKKLSLDEESVFKQKAQQKRVFDTVKVANDTRGRSVTFPVLLPIPGSNRSSVIMTAKPFESGVQQTEDKTLPNQGSSTEVPGNSHPRDPPGLPEDSDLATALHRLSLRRQNYLSEKQFFAEEWERKLQILAEQEEEVSSCEALTENLASFCTDQSETTELGSAGCLRGFMPEKLQIVKPLEGSQTLHHWQQLAQPNLGTILDPRPGVITKGFTQMPKDAVYHISDLEEDEEVGITFQVQQPLQLEQKPAPPPPVTGIFLPPMTSAGGPVSVATSNPGKCLSFTNSTFTFTTCRILHPSDITQVTPSSGFPSLSCGSSA |  | binds
